Data taken from article PMC10349144.
These are yes or no findings as the source states them, for the method shown. In cells and extracts the contact can be indirect. Some results given as binding are weak or reduced against the parent protein; the word gives no strength. For part of these data: Where a sequence is shown, tags or fusion partners need not be part of it. One block for each binder: values may come before it.

Protein sequences, listed by entry. Tags and fused reporters are not part of them. Lines headed by an entry give the natural chain unless they say otherwise; changes in a name come on top. Chains listed by the source or under a name are the forms on record and can include a tag or linker.
Myc-tagged RORγt (retinoic-acid related orphan receptor-γt) (P51450, form named): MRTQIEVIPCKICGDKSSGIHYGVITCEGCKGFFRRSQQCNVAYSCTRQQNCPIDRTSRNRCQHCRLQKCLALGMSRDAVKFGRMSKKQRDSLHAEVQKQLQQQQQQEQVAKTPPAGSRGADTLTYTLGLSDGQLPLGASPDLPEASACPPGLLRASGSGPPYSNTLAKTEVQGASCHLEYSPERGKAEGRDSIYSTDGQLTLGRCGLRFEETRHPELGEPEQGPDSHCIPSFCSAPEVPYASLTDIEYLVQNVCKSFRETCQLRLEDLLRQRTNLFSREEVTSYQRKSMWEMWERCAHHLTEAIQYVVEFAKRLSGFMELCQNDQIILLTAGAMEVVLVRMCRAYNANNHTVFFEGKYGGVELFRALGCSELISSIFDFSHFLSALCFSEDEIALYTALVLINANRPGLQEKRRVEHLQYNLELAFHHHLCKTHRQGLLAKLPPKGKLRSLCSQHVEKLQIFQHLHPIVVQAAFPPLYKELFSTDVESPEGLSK

Tests used:
[1] = target: Myc-tagged RORγt (retinoic-acid related orphan receptor-γt) (UniProt P51450); test: co-IP; 293T cells co-transfected with tagged expression plasmids (Lipofectamine 2000), 48 h, RIPA lysis; anti-HA, anti-Flag or anti-Myc antibody, Dynabeads Protein G; western blot
[2] = target: T1, HA-tagged Foxp3 (forkhead-box P3) (UniProt Q99JB6); test: as above
T1 sequence: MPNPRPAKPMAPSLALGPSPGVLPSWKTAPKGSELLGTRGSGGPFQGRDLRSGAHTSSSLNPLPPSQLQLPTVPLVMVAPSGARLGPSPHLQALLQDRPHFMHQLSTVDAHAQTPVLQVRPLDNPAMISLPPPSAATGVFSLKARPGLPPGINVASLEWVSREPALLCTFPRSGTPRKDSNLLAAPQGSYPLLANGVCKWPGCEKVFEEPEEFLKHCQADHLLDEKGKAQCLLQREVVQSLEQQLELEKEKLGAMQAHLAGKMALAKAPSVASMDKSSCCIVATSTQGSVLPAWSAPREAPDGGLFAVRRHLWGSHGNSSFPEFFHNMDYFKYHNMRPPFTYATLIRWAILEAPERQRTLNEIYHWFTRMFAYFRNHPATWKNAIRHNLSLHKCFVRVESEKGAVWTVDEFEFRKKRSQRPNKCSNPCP

[3] = target: T2, Foxp3 (of the 'endogenous Co-IP') (UniProt Q99JB6); test: co-IP; 'endogenous Co-IP' using the plasmids overexpressing IKKα and Foxp3 in 293T cells; plasmids co-transfected or transfected individually depending on endogenous or exogenous Co-IP; RIPA lysis, Dynabeads Protein G
T2 sequence: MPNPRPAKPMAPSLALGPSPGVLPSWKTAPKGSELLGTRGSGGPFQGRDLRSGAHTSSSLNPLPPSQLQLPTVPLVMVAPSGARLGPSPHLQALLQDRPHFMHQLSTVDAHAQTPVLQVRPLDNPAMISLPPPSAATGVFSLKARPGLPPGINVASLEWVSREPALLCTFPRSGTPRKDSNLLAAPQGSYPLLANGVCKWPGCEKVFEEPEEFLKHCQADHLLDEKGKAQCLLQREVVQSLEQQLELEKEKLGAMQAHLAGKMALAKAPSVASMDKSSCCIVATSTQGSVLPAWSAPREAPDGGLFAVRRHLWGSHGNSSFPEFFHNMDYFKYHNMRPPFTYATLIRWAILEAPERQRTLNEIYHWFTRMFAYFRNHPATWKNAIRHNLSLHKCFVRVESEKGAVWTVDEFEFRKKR

binding [1]: binds
B1: HA-tagged IKKα (IκB kinase-alpha) (enzyme, UniProt Q60680 1-745)
chain: MERPPGLRPGAGGPWEMRERLGTGGFGNVSLYQHRELDLKIAIKSCRLELSSKNRERWCHEIQIMKKLDHANVVKACDVPEELNFLINDVPLLAMEYCSGGDLRKLLNKPENCCGLKESQILSLLSDIGSGIRYLHENKIIHRDLKPENIVLQDVGGKTIHKIIDLGYAKDVDQGSLCTSFVGTLQYLAPELFENKPYTATVDYWSFGTMVFECIAGYRPFLHHLQPFTWHEKIKKKDPKCIFACEEMTGEVRFSSHLPQPNSLCSLIVEPMESWLQLMLNWDPQQRGGPIDLTLKQPRCFALMDHILNLKIVHILNMTSAKIISFLLPCDESLHSLQSRIERETGINTGSQELLSETGISLDPRKPASQCVLDGVRGCDSYMVYLFDKSKTVYEGPFASRSLSDCVNYIVQDSKIQLPIIQLRKVWAEAVHYVSGLKEDYSRLFQGQRAAMLSLLRYNANLTKMKNTLISASQQLKAKLEFFRKSIQLDLERYSEQMTYGISSEKMLKAWKEMEEKAIHYSEVGVIGYLEDQIMSLHTEIMELQKSPYGRRQGDLMESLEQRAIDLYKQLKHRPPDHLYSDSTEMVKIIVHTVQSQDRVLKELFGHLSKLLGCKQKIIDLLPKVEVALSNIKEADNTVMFMQGKRQKEIWHLLKIACTQSSARSLVGSSLEGTVTPPVSAWLPPTLADREHPLTCVVTPQDGETLAQMIEENLNCLGHLSTIIREANEDQSSSLMSLDWSWLAE

binding [2]: binds
B2: Flag-tagged IKKα (IκB kinase-alpha) (enzyme, UniProt Q60680 1-745)
chain: MERPPGLRPGAGGPWEMRERLGTGGFGNVSLYQHRELDLKIAIKSCRLELSSKNRERWCHEIQIMKKLDHANVVKACDVPEELNFLINDVPLLAMEYCSGGDLRKLLNKPENCCGLKESQILSLLSDIGSGIRYLHENKIIHRDLKPENIVLQDVGGKTIHKIIDLGYAKDVDQGSLCTSFVGTLQYLAPELFENKPYTATVDYWSFGTMVFECIAGYRPFLHHLQPFTWHEKIKKKDPKCIFACEEMTGEVRFSSHLPQPNSLCSLIVEPMESWLQLMLNWDPQQRGGPIDLTLKQPRCFALMDHILNLKIVHILNMTSAKIISFLLPCDESLHSLQSRIERETGINTGSQELLSETGISLDPRKPASQCVLDGVRGCDSYMVYLFDKSKTVYEGPFASRSLSDCVNYIVQDSKIQLPIIQLRKVWAEAVHYVSGLKEDYSRLFQGQRAAMLSLLRYNANLTKMKNTLISASQQLKAKLEFFRKSIQLDLERYSEQMTYGISSEKMLKAWKEMEEKAIHYSEVGVIGYLEDQIMSLHTEIMELQKSPYGRRQGDLMESLEQRAIDLYKQLKHRPPDHLYSDSTEMVKIIVHTVQSQDRVLKELFGHLSKLLGCKQKIIDLLPKVEVALSNIKEADNTVMFMQGKRQKEIWHLLKIACTQSSARSLVGSSLEGTVTPPVSAWLPPTLADREHPLTCVVTPQDGETLAQMIEENLNCLGHLSTIIREANEDQSSSLMSLDWSWLAE

binding [3]: binds
B3: IKKα (of the 'endogenous Co-IP') (enzyme, UniProt Q60680 1-745)
chain: MERPPGLRPGAGGPWEMRERLGTGGFGNVSLYQHRELDLKIAIKSCRLELSSKNRERWCHEIQIMKKLDHANVVKACDVPEELNFLINDVPLLAMEYCSGGDLRKLLNKPENCCGLKESQILSLLSDIGSGIRYLHENKIIHRDLKPENIVLQDVGGKTIHKIIDLGYAKDVDQGSLCTSFVGTLQYLAPELFENKPYTATVDYWSFGTMVFECIAGYRPFLHHLQPFTWHEKIKKKDPKCIFACEEMTGEVRFSSHLPQPNSLCSLIVEPMESWLQLMLNWDPQQRGGPIDLTLKQPRCFALMDHILNLKIVHILNMTSAKIISFLLPCDESLHSLQSRIERETGINTGSQELLSETGISLDPRKPASQCVLDGVRGCDSYMVYLFDKSKTVYEGPFASRSLSDCVNYIVQDSKIQLPIIQLRKVWAEAVHYVSGLKEDYSRLFQGQRAAMLSLLRYNANLTKMKNTLISASQQLKAKLEFFRKSIQLDLERYSEQMTYGISSEKMLKAWKEMEEKAIHYSEVGVIGYLEDQIMSLHTEIMELQKSPYGRRQGDLMESLEQRAIDLYKQLKHRPPDHLYSDSTEMVKIIVHTVQSQDRVLKELFGHLSKLLGCKQKIIDLLPKVEVALSNIKEADNTVMFMQGKRQKEIWHLLKIACTQSSARSLVGSSLEGTVTPPVSAWLPPTLADREHPLTCVVTPQDGETLAQMIEENLNCLGHLSTIIREANEDQSSSLMSLDWSWLAE
